Test results reported in patent publication US20240262878A1, “PHOTOACTIVATABLE GASDERMIN PROTEINS” (THE BOARD OF TRUSTEES OF THE UNIVERSITY OF ILLINOIS, priority 2021, published 2024).
At least one compound was matched to its structure with a doubt left.

What was measured:
Hela cells = assay: PhoDer activation after pretreatment with PI3K/PLC modulators, calcium flare dynamics; assay type: cell-based
Description: Cell Culture. HeLa and RAW264.7 cells were maintained in Dulbecco's Modified Eagle Medium (DMEM) medium supplemented with 10% fetal bovine serum (FBS) and 1% penicillin and streptomycin. Cells were transfected at 50%-70% confluency using LIPOFECTAMINE® 2000 transfection reagent and incubated for 24 hours before imaging. Cells were never serum-starved. To examine endogenous inflammatory activation, RAW264.7 cells were treated with 100 ng/μL lipopolysaccharide (LPS, Invivogen) at the beginning of each experiment. Pretreatment to bias membrane composition by phosphatidylinositol 4,5-bisphosphate (PIP2) modifying enzymes was performed by incubating Hela cells in Hanks' Balanced Salt Solution (HBSS) buffer with inhibitors at 37° C. for 10 minutes to prior imaging at the following concentrations: for phosphoinositide 3-kinase (PI3K), cells were treated 10 μM wortmannin (Tocris); and for phospholipase C (PLC), cells were treated with 10 μM U73122 (Tocris). Cells were removed from the incubator and allowed to come to thermal equilibrium before being imaged in HBSS buffer at room temperature.
Fluorescence Imaging, Optogenetic Activation, and Post-Processing. All epifluorescence imaging was performed on a customized Nikon Ti2-E microscope equipped with individual control over excitation (EX) and emission (EM) filters, a fast LED light source (Lumencor) with fluid-cooled EMCCD (Andor), motorized stage, and examined under a 40× or 100× oil immersion objective under live focus tracking. For RFP, excitation (EX) and emission (EM) filter combinations (maxima/bandwidth in nm) are indicated. Cells were imaged at 12-15 second intervals. Emission intensities of individual cells were background-subtracted before normalization to zero time point, when optogenetic activation began. In the optical setup, optogenetic activation of PhoDer was performed using an EX filter at 440/20 nm for 20-30 ms across whole fields of view. This replicated the progression of endogenous activation of GSDMD observed in LPS-stimulated RAW264.7 cells. […] Where applicable, inhibitors were treated at the indicated concentration for 15 minutes prior to imaging.
Fluctuation Analysis and Quantification. To automate the objective isolation and quantitation of calcium flares, a post-processing algorithm was developed based on principles and normalization scheme detailed in work on photochromic stochastic optical fluctuation imaging (pcSOFI) (Dedecker et al. (2012) Proc. Natl. Acad. Sci. USA 109: 10909-10914). Briefly, fluctuation caused by the flares generate high autocorrelation signals in time-averaged series and yield high contrast at locales of the greatest ion flux. To truly reflect the local flux change, it is then normalized to remove dependence on the number of biosensors reporting at the given location using a scheme detailed previously (Mo et al. (2017) Nat. Methods 14 (4): 427-434). Using Matlab, rolling-window mean and rolling-window autocorrelation values were calculated for each pixel over each entire fluorescence time course that contained possible flares. A heuristic approach to window size was taken and a range of window sizes were examined using examples where calcium flares were visually distinct prior to setting the window size for all analyses. All such fluctuation images were then verified manually against intensity time course to ensure bone fide flare detection; particularly strong and non-overlapping flares were chosen and added to calculate kinetic parameters. […]

[1] = tested on: bone marrow-derived macrophages (BMDM); assay: IL-1β cytokine release ELISA; assay type: cell-based; settings: short-term LPS stimulation (5 minutes), mouse BMDM
Description: Cytokine Release. LPS-stimulated, IL-1β cytokine release from bone-marrow monocyte-derived macrophages ([…] mice) was measured using the QUANTIKINE® ELISA kit (R&D Systems). Cells were seeded in 96-well plates and pre-treated for 10 minutes with medium, 10 μM U73122, or 10 μM wortmannin. LPS (100 ng/μL, Invivogen) was then added to the cells for 5 minutes and the cell-free supernatants were recovered and subjected to the ELISA kit according to the manufacturer's instructions. The concentration of the samples in 96-well plates was measured via absorbance at 450 nm using an Epoch Microplate Spectrophotometer (Biotek Instruments). The OD values in six technical repeats each from a total of three mice (n=18) were converted into the […] levels reported via a power law fit of a serial dilution calibration curve.

COC[C@H]1OC(=O)c2coc3c2[C@@]1(C)C1=C(C3=O)[C@@H]2CCC(=O)[C@@]2(C)C[C@H]1OC(C)=O [wortmannin] was tested. Which “pixel-wise calcium fluctuations, local pore activity per locale” value (Hela cells; pretreated vs non-pretreated cells) did it give?
The value was “comparable mean activity per locale as non-pretreated cells”.

What about the “effective average opening time” value (Hela cells; pretreatment 10 μM) of the same compound?
The value was 3.30 min.

And the “intracellular calcium progression after PhoDer activation” value (Hela cells; pretreatment 10 μM)?
The value was “significant delay in calcium progression”.

What about the “time to maximal calcium flux” value (Hela cells; pretreatment 10 μM) of the same compound?
Its value is 0.60 min.

What about the “cooperative coefficient of pore closing” value (Hela cells; pretreatment 10 μM, mean of n=27 pores, R^2=0.998) of the same compound?
Its value is 0.30.

What about the IL-1β release [1] of the same compound?
The IL-1β release was “significantly dampened”.
